Earlier results on 1 compound are cited in patent US20200315965A1, “NANOEMULSION CONCENTRATE FORMULATIONS AND METHODS” (priority 2019, published 2020).

For this data set the following is noted: water.

Each structure is given as a SMILES string.

Regarding `C=C(C)[C@@H]1CCC(C)=C[C@H]1c1c(O)cc(CCCCC)cc1O` [CBD, cannabidiol], the aqueous solubility entry is “approximately 0.013 milligrams per milliliter”.
